Reference: the supplement of paper PMC3334620
The full ranking holds about 33,000 sequences; the median of “E-score (-0.5 to 0.5)” is about -8e-05, and the highest 2% start at about 0.23. The list shows a part of the results.

These sequences were tested against T1, Nrg2 (UniProt P38082) (assay: PBM E-score (8-mer binding enrichment) (E-score (-0.5 to 0.5)); higher = stronger / more preferred TF binding). Conditions: protein concentration: 100 nM; construct: GST-full length.
T1 sequence: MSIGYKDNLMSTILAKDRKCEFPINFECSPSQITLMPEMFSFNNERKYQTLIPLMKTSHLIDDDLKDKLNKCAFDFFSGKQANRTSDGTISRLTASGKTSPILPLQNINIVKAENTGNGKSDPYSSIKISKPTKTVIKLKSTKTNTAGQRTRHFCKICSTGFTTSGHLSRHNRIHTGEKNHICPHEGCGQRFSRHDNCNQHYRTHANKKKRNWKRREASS
Procedure, shortened: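 Universal all-10-mer Agilent arrays, fresh or stripped once, were converted to double-stranded form by primer extension. GST-tagged yeast transcription factors from PURExpress in vitro transcription/translation, full-length or DNA-binding domain only, were applied at about 100-200 nM and detected with fluorescent anti-GST. After masliner normalisation, the Universal PBM Analysis Suite scored each ungapped eight-base word together with its reverse complement by E-score.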

Row | Sequence | PBM E-score
1 | CCCTTTCA | -0.033
2 | CTCTTCCA | -0.19
3 | ACATTATA | 0.189
4 | GCTAATAC | 0.119
5 | ATTACAAG | 0.0724
6 | CACGGGGA | 0.0457
7 | GACAAGTC | -0.119
8 | ATGAATCA | 0.172
9 | ATAACGGG | -0.124
10 | TTGATAAA | 0.153
11 | CCGTATCA | 0.016
12 | GATCGGAC | 0.031
13 | GTTACCCA | -0.202
14 | AGGTGGTC | -0.0416
15 | ATATGCAC | 0.0901
16 | ATCGTTGG | -0.0345
17 | AAGTATCA | 0.122
18 | GCGATAGA | 0.0735
19 | ACCTGAGG | -0.134
20 | AAGATTAC | -0.0187
21 | GCTACACC | -0.122
22 | ACACGCGG | 0.0963
23 | ATATAGCA | -0.00901
24 | CAAACCAA | 0.214
25 | ACATGTAG | 0.2

Row | Sequence | PBM E-score
26 | GCCTGGAA | 0.0438
27 | CGCTACCC | -0.0608
28 | CAACACTG | 0.0542
29 | CGGCGATA | -0.103
30 | AGTACAAA | 0.06
31 | CGTTCAGA | -0.192
32 | AAACTGCC | 0.0123
33 | CGATAACA | 0.00415
34 | ATTGCATA | 0.149
35 | ATGATGCA | 0.132
36 | AACACGAG | 0.094
37 | CCGCAGAG | -0.193
38 | AAGCATGG | -0.133
39 | ACACAAAT | 0.206
40 | AGCTAACC | -0.163
41 | ACTGATAT | 0.0251
42 | ATGAGGAG | -0.19
43 | AGAAGCCA | 0.025
44 | ATCGATGC | -0.0258
45 | CCCGTCAC | -0.0719
46 | GACGATAA | 0.0704
47 | AGCGGCAT | 0.153
48 | CTTAATGA | 0.0652
49 | AAATTTAT | 0.114
50 | CCGACTAG | -0.124

Quoted at random: 3 entries already listed, in no set order.
Row | Sequence | PBM E-score
35 | ATGATGCA | 0.132
6 | CACGGGGA | 0.0457
13 | GTTACCCA | -0.202

Look-ups from the list:
In PBM E-score, GACGATAA is listed with 0.0704
In PBM E-score, CGTTCAGA is listed with -0.192
In PBM E-score, CGGCGATA is listed with -0.103

Additional records follow.

Row | Sequence | PBM E-score
51 | TTCACCAA | 0.0351
52 | GCATTTCC | 0.119
53 | GTCCAGGA | -0.0805
54 | AATCACGG | 0.145
55 | GATCTTCC | -0.177
56 | AGTATCAC | -0.0665
57 | CCACACGG | 0.0193
58 | ATGCGGAA | 0.0661
59 | GTCGTACA | 0.099
60 | GAGATTTA | -0.1
61 | CGGCACAG | 0.069
62 | AACACTAC | 0.0505
63 | CACTATGC | 0.0832
64 | AGAATCGC | -0.0179
65 | CCGCGAAA | 0.0786
66 | CAAAGCTA | -0.00225
67 | ACGCCAAA | -0.108
68 | ACTTAATA | 0.0629
69 | AGCCGTGC | -0.246
70 | GGATTGAC | 0.103
71 | ACAACCAA | 0.124
72 | GAGCATAC | -0.154
73 | AAAGCTTA | 0.00538
74 | AGTCCCAC | -0.079
75 | CGAATTCC | 0.125

Row | Sequence | PBM E-score
76 | ATGCAATA | -0.00957
77 | TCACTTCA | -0.139
78 | GCAACAAC | -0.00266
79 | CGAAATAA | 0.156
80 | AGCACCGG | -0.148
81 | GGTGTAGA | 0.0243
82 | GCCTGGCA | -0.327
83 | ATCTCCAC | -0.0729
84 | AATAAAAT | 0.0899
85 | AAGCGTTC | -0.0849
86 | GATTCCCA | 0.107
87 | AGACATCT | -0.0442
88 | AGCATCCT | -0.0388
89 | GGAGCGTA | -0.0749
90 | ACAAATAT | 0.114
91 | TCTCTCAA | 0.14
92 | AGACAACA | 0.0138
93 | AAGACACC | 0.0281
94 | ATTAGTCC | 0.139
95 | AAACTAAC | 0.157
96 | ACTCGTTA | -0.145
97 | CTGGTAAG | -0.0923
98 | ACATATTA | 0.223
99 | AAGAGGAA | -0.0422
100 | AGGTTTGA | -0.0326

Row | Sequence | PBM E-score
101 | ATGTGTGG | 0.0214
102 | GATGCGCA | 0.0768
103 | GGCGGTAC | -0.0721
104 | TCAGCGCA | -0.0558
105 | CTAGAATC | -0.0115
106 | GCTTGGCC | -0.06
107 | CTTTAAAG | -0.0201
108 | CATGTCAG | 0.128
109 | CTGTCACC | -0.164
110 | GAAGCCTA | -0.14
111 | AGTTGACG | 0.0891
112 | AGTGAGCC | 0.00986
113 | GATCAAAC | 0.0743
114 | CATCACTC | -0.101
115 | TCAGCCCA | 0.0927
116 | ATCGTCAT | 0.109
117 | CACTAACA | 0.076
118 | CGTTTCAC | -0.00605
119 | ACACGAAC | 0.0826
120 | CCTTCAAC | -0.128
121 | ACGACTGG | -0.184
122 | CCTGCCTC | -0.141
123 | CCCGTACG | -0.0853
124 | CGGGGCAA | -0.0179
125 | AGACTATA | 0.124

Row | Sequence | PBM E-score
126 | AATTTCCT | 0.029
127 | CAGGATCC | 0.0919
128 | TTAGAGAA | -0.271
129 | CGCTTGCC | -0.0352
130 | CACGGACG | 0.0471
131 | CAATTAAA | 0.176
132 | CGACGTCA | 0.0858
133 | AGTAAACC | -0.0693
134 | ACCGAAGT | 0.129
135 | CGGACACA | -0.0544
136 | GGGAGGAC | 0.0465
137 | CCCTCAGA | -0.0586
138 | ATGCCTCC | -0.18
139 | GAACCCCC | -0.322
140 | AATAGTCC | -0.0226
141 | GGGGCAAA | -0.006
142 | GCCGAAGA | -0.00219
143 | GCCTAGCA | -0.294
144 | ACTGCAAC | -0.0824
145 | GACATGTA | 0.183
146 | AAATGCCT | -0.141
147 | CATCTAAA | -0.00644
148 | AATATCCT | -0.0359
149 | ATCCGGTC | -0.215
150 | GTCCATAA | -0.0698

Row | Sequence | PBM E-score
151 | CCGGTCAG | -0.145
152 | ACTAGGTG | -0.0507
153 | AGCGCCCA | -0.12
154 | GTCCGCTA | 0.0262
155 | GAAGTGAA | 0.115
156 | GCGCCGCA | 0.119
157 | ATTAGGTA | -0.0233
158 | ATCTCCCA | 0.18
159 | GCATAGGA | -0.0999
160 | ATCTTACC | -0.07
161 | GCGCATAA | 0.0999
162 | CAGAGTAC | -0.112
163 | CACGCATA | 0.0227
164 | AGAATCTG | 0.00944
165 | GCTAAAAA | -0.154
166 | ACGTCTTA | -0.132
167 | CCGCGGCC | 0.128
168 | GACGGGCC | -0.254
169 | TAACTAAA | 0.00653
170 | CGCTGCCG | -0.168
171 | AGCGTTTA | -0.227
172 | TGCCTAAA | -0.045
